Reference: paper doi:10.1101/2022.11.06.515368

Chains of the proteins cited; added tags and fusions are not shown.
UniProt O95071: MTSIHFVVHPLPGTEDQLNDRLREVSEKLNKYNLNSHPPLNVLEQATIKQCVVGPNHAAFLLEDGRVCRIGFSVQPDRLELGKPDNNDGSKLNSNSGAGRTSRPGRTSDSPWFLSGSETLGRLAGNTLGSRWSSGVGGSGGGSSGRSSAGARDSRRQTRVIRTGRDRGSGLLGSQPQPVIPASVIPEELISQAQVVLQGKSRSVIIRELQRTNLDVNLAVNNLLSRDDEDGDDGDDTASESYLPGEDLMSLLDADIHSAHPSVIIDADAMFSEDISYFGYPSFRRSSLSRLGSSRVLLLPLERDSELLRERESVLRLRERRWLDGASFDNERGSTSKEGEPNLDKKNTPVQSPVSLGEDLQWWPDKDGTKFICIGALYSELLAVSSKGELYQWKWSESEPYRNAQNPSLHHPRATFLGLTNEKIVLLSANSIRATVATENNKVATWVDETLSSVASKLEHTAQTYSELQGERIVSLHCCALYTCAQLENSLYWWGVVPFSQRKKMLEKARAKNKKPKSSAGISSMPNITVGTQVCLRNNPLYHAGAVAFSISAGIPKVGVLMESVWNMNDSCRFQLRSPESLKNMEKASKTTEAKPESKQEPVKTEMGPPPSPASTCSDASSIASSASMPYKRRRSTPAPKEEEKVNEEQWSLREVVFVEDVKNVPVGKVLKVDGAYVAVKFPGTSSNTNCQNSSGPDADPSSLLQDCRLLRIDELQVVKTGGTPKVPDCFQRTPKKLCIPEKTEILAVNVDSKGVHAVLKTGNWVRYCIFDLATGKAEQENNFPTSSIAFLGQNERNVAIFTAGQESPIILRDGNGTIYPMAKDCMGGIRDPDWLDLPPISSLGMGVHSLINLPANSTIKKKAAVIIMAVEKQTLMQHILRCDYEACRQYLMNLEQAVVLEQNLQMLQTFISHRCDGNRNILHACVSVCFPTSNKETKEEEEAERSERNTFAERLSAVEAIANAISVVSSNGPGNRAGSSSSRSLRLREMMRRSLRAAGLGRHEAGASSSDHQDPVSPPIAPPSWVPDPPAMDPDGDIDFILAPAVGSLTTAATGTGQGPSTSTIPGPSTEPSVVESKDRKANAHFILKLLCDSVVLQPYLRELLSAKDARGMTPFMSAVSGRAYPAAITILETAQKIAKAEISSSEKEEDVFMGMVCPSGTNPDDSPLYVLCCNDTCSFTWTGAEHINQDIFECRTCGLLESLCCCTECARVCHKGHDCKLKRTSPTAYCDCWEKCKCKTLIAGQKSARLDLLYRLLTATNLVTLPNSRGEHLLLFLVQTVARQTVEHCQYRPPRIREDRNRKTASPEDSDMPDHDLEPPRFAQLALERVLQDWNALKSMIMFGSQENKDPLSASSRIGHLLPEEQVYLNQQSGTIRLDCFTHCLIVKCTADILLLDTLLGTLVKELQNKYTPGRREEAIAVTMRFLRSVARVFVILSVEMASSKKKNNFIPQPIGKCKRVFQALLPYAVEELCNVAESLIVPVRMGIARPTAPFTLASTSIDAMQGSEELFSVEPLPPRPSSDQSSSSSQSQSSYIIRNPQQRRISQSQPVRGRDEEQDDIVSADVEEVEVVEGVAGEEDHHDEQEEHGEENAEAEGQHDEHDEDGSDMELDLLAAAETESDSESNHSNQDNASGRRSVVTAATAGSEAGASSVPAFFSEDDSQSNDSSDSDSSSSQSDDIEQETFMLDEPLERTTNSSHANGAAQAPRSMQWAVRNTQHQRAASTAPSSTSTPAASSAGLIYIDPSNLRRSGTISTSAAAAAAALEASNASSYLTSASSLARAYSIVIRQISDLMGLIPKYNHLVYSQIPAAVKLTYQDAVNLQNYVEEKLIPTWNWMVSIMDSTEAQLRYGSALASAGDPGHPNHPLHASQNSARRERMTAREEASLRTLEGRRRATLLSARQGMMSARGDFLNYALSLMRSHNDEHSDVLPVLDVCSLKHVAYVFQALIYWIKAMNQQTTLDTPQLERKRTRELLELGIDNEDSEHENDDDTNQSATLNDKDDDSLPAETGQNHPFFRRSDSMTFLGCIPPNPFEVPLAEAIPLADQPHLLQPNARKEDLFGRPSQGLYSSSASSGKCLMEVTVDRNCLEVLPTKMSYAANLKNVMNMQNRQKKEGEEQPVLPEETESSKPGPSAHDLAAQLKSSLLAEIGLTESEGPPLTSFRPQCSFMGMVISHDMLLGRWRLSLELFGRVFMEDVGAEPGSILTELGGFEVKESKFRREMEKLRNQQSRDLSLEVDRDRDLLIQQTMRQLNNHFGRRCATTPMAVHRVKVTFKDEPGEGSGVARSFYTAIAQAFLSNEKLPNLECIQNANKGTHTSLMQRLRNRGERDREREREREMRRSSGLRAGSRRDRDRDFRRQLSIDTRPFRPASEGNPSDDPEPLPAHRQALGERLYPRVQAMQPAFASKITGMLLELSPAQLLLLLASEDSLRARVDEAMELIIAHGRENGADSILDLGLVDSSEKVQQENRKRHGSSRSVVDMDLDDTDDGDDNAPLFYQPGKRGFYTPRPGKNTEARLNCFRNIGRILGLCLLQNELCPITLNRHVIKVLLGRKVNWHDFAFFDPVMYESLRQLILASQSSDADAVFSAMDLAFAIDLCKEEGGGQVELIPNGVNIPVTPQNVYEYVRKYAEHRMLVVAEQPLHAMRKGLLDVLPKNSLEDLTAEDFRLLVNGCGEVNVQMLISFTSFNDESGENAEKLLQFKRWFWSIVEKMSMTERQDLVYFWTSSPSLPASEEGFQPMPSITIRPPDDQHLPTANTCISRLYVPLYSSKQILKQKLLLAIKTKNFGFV
UniProt O00139: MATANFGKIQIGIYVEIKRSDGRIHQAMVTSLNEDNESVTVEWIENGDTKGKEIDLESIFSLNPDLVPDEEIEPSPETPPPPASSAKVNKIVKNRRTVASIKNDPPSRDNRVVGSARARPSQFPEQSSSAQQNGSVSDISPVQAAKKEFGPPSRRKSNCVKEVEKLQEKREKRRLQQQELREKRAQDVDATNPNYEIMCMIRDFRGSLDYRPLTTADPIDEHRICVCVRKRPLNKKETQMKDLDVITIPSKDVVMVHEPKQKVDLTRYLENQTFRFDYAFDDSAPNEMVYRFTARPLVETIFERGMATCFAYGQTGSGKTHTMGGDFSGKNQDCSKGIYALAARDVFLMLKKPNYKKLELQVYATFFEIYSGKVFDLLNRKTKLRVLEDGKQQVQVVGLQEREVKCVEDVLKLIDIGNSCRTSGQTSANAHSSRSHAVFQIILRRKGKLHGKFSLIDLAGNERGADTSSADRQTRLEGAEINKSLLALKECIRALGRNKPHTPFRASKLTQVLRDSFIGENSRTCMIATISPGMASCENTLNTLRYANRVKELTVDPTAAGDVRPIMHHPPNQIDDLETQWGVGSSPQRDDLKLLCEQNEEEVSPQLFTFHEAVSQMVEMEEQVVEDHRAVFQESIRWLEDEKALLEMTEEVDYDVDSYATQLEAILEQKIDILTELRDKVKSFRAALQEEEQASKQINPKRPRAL
UniProt O43683: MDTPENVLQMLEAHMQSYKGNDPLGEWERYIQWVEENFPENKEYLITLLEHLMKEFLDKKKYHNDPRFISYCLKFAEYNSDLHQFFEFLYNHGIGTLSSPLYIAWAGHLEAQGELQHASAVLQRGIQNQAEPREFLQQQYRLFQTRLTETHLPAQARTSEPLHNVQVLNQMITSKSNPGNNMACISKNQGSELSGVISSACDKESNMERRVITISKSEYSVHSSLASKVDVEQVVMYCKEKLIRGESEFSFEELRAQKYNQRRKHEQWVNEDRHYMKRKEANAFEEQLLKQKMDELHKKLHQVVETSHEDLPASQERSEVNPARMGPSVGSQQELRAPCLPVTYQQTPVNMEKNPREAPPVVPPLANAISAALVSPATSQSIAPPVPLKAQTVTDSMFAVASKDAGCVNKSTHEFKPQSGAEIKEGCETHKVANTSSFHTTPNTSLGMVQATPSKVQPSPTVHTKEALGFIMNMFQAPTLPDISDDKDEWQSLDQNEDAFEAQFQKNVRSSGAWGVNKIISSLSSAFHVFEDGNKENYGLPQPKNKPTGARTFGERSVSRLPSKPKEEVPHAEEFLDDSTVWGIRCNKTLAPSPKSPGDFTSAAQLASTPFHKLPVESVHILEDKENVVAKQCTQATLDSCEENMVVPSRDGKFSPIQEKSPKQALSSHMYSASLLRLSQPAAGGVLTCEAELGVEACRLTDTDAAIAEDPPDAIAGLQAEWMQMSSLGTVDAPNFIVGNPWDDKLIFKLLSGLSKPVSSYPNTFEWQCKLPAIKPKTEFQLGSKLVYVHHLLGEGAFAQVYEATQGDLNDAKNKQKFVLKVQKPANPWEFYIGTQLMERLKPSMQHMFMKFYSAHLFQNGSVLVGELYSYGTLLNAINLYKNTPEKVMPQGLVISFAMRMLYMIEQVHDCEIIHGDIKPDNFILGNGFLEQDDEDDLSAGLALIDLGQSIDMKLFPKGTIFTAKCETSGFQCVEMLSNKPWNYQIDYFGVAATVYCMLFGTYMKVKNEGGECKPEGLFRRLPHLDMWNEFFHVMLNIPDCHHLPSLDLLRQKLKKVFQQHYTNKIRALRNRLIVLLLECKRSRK
UniProt P53350: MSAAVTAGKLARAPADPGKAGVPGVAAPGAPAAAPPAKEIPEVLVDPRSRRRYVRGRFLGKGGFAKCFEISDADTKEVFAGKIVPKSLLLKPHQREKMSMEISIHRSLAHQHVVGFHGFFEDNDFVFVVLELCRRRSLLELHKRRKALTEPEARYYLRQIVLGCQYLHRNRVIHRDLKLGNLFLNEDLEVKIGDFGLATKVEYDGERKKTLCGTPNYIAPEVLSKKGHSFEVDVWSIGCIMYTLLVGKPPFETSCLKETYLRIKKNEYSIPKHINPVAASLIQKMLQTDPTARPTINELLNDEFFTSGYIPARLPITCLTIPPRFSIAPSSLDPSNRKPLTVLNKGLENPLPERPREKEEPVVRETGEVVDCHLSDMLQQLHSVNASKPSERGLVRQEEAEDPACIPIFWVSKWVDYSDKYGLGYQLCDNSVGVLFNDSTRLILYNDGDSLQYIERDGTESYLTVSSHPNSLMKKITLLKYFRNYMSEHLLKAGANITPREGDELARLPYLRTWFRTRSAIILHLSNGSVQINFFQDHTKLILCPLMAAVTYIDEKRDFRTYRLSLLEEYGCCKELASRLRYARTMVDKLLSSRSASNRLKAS
UniProt O60566: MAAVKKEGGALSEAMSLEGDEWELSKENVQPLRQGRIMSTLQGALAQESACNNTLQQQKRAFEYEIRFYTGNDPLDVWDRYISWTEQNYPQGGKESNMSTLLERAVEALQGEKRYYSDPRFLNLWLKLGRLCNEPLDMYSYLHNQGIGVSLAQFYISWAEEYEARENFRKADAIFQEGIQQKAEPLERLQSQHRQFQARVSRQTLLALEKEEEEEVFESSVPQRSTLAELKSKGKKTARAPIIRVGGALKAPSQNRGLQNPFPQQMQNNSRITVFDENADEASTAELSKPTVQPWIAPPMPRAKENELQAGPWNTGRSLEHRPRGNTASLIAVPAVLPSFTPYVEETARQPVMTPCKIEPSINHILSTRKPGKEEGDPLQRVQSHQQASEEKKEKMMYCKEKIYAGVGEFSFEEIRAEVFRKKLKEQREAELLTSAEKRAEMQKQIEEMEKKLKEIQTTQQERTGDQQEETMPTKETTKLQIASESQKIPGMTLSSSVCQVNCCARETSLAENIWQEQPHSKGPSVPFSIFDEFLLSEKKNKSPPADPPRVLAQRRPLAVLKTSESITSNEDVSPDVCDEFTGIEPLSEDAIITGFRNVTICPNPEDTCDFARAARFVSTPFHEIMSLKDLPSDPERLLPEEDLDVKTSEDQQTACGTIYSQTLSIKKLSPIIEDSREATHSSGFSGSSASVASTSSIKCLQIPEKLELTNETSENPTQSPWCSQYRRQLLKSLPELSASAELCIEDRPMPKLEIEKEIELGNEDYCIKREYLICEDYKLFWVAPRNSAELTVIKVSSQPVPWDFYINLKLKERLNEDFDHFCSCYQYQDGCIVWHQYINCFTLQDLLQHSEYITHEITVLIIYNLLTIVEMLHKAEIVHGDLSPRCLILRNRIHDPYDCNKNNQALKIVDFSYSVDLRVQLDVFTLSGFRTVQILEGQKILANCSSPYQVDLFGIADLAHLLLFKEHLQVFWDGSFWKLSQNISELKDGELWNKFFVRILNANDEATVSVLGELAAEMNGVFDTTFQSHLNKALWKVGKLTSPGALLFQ
UniProt O43684: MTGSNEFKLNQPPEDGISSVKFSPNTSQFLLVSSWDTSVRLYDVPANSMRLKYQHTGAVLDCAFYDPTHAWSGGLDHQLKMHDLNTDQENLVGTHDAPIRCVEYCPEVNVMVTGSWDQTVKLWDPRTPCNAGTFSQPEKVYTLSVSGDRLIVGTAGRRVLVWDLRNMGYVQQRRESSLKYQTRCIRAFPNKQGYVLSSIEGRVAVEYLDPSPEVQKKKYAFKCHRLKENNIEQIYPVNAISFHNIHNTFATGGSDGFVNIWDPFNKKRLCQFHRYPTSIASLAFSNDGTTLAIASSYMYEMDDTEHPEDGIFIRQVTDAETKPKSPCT

These substances were tested against endogenously FLAG-tagged UBR5 (human) (UniProt O95071) (assay: affinity purification with mass spectrometry).

Row | binding | Substance
1 | binds | KIF2A (from UniProt O00139 1-706)
2 | binds | BUB1 (from UniProt O43683 1-1085)
3 | binds | PLK1 (from UniProt P53350 1-603) (enzyme)
4 | binds | BUBR1 (from UniProt O60566 1-1050)
5 | binds | BUB3 (from UniProt O43684 1-328)

These are yes or no findings as the source states them, for the method shown. In cells and extracts the contact can be indirect. These calls come from enrichment with a bait or labelling near it, and not all partners need be listed.
